Reference: the supplement of paper PMC12889115
Some of the results follow. Values are raw readings; no control value is given beside them.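 In the initial screen, polymyxin B was used at a concentration that permeabilizes Salmonella's outer membrane but not its inner membrane. Maximum growth was set by DMSO wells with or without polymyxin B. Since plates varied, data were ranked per plate, and compounds giving the lowest OD600 advanced as hits.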

Tested on: Salmonella enterica serovar Typhimurium SL1344
Test: bacterial growth OD600 after 18 h with compound and polymyxin B; higher = more bacterial growth (less inhibition)
Conditions: 50 µM, Mueller-Hinton broth

| SMILES | bacterial growth OD600 (polymyxin B 1 µg/mL) | bacterial growth OD600 (polymyxin B 0.75 µg/mL) |
| --- | --- | --- |
| O=C(NCc1ccccc1F)c1cc(CN2CCOCC2)on1 | 0.948 |  |
| CC(C)NC(=O)C1CCC(=O)N(CCc2cccc(F)c2)C1 (stereo unspecified) | 0.935 |  |
| CN(CCc1cn[nH]c1)C(=O)CC(c1ccccc1)c1ccc(Cl)cc1 (stereo unspecified) | 0.606 |  |
| CN(C(=O)Cn1nnnc1CN1CCOCC1)C1CCCc2ccccc21 (stereo unspecified) |  | 0.839 |
| CC1CCN(C(=O)CN2Cc3ccccc3OC(c3ccccc3F)C2)CC1 (stereo unspecified) |  | 0.006 |
| OC1CCCN(c2ncccc2CNC2CSCCSC2)C1 (stereo unspecified) | 0.992 |  |
| CCCC(=O)N1CCC2(CCCN(Cc3cc(OC)ccc3F)C2=O)C1 (stereo unspecified) | 0.769 |  |
| CC1(C)Cc2nc(C(C)(C)C)ncc2C(NC(=O)CCCn2cncn2)C1 (stereo unspecified) |  | 0.765 |
| CSCCNCc1c(C(=O)N(C)CCc2ccccc2)nc2sccn12 | 0.722 |  |
| COC(=O)c1c(S(=O)(=O)NCc2ccccc2)sc2c1CCN(C(=O)c1ccccc1)C2 |  | 0.957 |
| O=C(c1ccc(N2CCCCCCC2)nc1)N1CCCN(c2ncccn2)CC1 | 0.891 |  |
| O=C(CN1CCCCC1=O)NC1CCCc2c1cnn2-c1ccc(F)cc1F (stereo unspecified) | 0.818 |  |
| CCN1CCN(C2(C(=O)NCCc3ccccc3F)Cc3ccccc3C2)CC1 |  | 0.787 |
| Cc1nc(C)c(C(=O)N2CCC(C3(Cc4ccc(F)cc4)NC(=O)N(CC4CC4)C3=O)CC2)s1 (stereo unspecified) |  | 0.808 |
| COCCNc1nc(CN2CCCCC2C(=O)OC)nc2c(C)cccc12 (stereo unspecified) |  | 0.85 |
| O=C(NCc1ccccc1F)c1ccc(OC2CCN(C(=O)C3CC3)CC2)cc1 | 1.15 |  |

| SMILES | bacterial growth OD600 (polymyxin B 1 µg/mL) | bacterial growth OD600 (polymyxin B 0.75 µg/mL) |
| --- | --- | --- |
| COc1cccc(N2CCN(C(=O)C3CCC(=O)N(C4CC4)C3)CC2=O)c1 (stereo unspecified) | 0.924 |  |
| Cn1cc(CN2CCC(Oc3ccc(C(=O)NCc4ccccn4)cc3)CC2)cn1 | 0.976 |  |
| Cc1ncc2c(c1CNC(=O)CN1CCCCC1)CCN(C(=O)c1ccc(-c3ccco3)cc1)C2 |  | 0.81 |
| CC(=O)c1cc(CN2CCCC(N3CCN(c4cccc(C(F)(F)F)c4)CC3)C2)cs1 (stereo unspecified) | 0.801 |  |
| CC1CCN(c2ccc(C(=O)N3CCC(Cn4cccn4)CC3)cn2)CC1 | 0.864 |  |
| Cc1ccccc1CCC1CCCN(C(=O)C2CCN(C(C)C)CC2)C1 (stereo unspecified) |  | 0.007 |
| Cc1cccc2nc(CNC(=O)c3cc(COc4ccc(F)cc4F)on3)cn12 |  | 0.722 |
| CCn1nc(C)c(CNC(=O)CN2Cc3ccccc3OC(c3ccsc3)C2)c1C (stereo unspecified) |  | 0.876 |
| CN(CCc1cnn(C)c1)C(=O)c1cc(COc2ccc3c(c2)OCO3)[nH]n1 | 0.89 |  |
| Cc1occc1C(=O)N(C)C(Cc1ccccc1)C1CCN(C(=O)c2[nH]nc3c2CCCC3)CC1 (stereo unspecified) |  | 0.858 |
| COc1ccc(OCc2cc(C(=O)NC(C)Cc3ccccn3)no2)c(Cl)c1 (stereo unspecified) | 0.73 |  |
| COc1ccc(CCC(=O)N2CCC(C3(CC(C)C)NC(=O)N(Cc4cccs4)C3=O)CC2)cc1 (stereo unspecified) |  | 0.765 |
| O=C(NCCN1CCOCC1)c1cc(COc2cccc(C(F)(F)F)c2)[nH]n1 | 1.18 |  |
| O=C1CCC(CCC(=O)N2CCC(c3ccc(F)cc3)C2)(Cc2ccc3ccccc3c2)N1 (stereo unspecified) |  | 0.005 |
| COc1ccccc1C1CN(CCNC(=O)CCc2ccc3c(c2)OCO3)Cc2ccccc2O1 (stereo unspecified) |  | 0.019 |

Of the compounds above, 2 have a Cl atom:

| SMILES | bacterial growth OD600 (polymyxin B 1 µg/mL) | bacterial growth OD600 (polymyxin B 0.75 µg/mL) |
| --- | --- | --- |
| CN(CCc1cn[nH]c1)C(=O)CC(c1ccccc1)c1ccc(Cl)cc1 (stereo unspecified) | 0.606 |  |
| COc1ccc(OCc2cc(C(=O)NC(C)Cc3ccccn3)no2)c(Cl)c1 (stereo unspecified) | 0.73 |  |
